Experimental findings from ChEMBL document CHEMBL1143035, “Synthesis, antifungal and haemolytic activity of a series of bis(pyridinium)alkanes” (Bioorg Med Chem, 2007) are described below.

The assay concerns Aspergillus fumigatus. Put plainly: Antifungal activity against Aspergillus fumigatus ATCC 204 305. The format is functional.

Molecules are shown by their SMILES. Values after ≈ are worked out from the molar mass of the structure shown.

On to `C[C@@H]1[C@H](O)[C@@H](C)/C=C/C=C/C=C/C=C/C=C/C=C/C=C/[C@H](O[C@@H]2O[C@H](C)[C@@H](O)[C@H](N)[C@@H]2O)C[C@@H]2O[C@](O)(C[C@@H](O)C[C@@H](O)[C@H](O)CC[C@@H](O)C[C@@H](O)CC(=O)O[C@H]1C)C[C@H](O)[C@H]2C(=O)O` [AMPHOTERICIN B], for which the MIC was found to be 0.55 µM (≈ 0.508 µg/mL). That is a sub-micromolar value.

Usually MIC stands for the least concentration at which growth counts as inhibited. Read a low MIC as greater potency.
